# Data as given in PubChem BioAssay AID1259354.
# Amino acid sequences for entries named in this document (tags omitted).
# UniProt Q01638, whole entry: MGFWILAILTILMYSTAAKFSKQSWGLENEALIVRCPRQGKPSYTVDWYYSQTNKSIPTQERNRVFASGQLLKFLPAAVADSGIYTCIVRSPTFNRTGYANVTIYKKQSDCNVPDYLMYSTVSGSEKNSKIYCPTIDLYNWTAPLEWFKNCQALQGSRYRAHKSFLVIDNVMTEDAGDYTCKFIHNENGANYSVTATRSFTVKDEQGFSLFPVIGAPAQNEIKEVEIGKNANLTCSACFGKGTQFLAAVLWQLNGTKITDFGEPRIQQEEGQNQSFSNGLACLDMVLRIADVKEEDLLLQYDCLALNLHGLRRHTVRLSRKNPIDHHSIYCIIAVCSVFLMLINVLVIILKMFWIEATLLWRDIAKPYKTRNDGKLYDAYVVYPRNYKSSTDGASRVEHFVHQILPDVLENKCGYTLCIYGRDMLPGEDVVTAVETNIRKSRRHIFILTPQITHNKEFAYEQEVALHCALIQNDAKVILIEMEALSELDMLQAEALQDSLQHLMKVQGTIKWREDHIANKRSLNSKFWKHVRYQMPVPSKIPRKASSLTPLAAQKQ
# UniProt O95760, whole entry partner: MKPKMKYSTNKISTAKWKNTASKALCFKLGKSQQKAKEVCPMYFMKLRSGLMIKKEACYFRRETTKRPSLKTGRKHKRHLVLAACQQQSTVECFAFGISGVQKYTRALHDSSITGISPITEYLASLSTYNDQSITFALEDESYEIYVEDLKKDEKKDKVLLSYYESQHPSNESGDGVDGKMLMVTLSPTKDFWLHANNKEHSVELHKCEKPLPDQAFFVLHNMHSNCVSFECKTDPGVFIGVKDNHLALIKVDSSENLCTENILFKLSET
# About 1,800 (2.3%) of roughly 78,000 compounds were called active. The source calls these results inconclusive, neither active nor inactive. Cut-off read from the data, not from the text of the source: active = inhibition above about 30%; inconclusive = mostly about 10% to 28%; inactive = weaker than that.
# Biological target: Interleukin-1 receptor-like 1 (Homo sapiens) (UniProt Q01638)
# Experiment: inhibitors of human ST2 (IL1RL1) binding to IL-33, primary screen, biochemical, AlphaLISA (AID 1259354)
# Details: AlphaLISA ST2-Fc/biotin-IL-33 interaction, 1 h; at 17 µM; hits give high values
row,SMILES,inhibition
1,O=[N+]([O-])c1nonc1NCNc1nonc1[N+](=O)[O-],inconclusive: 17%
